Measured values published in doi:10.1101/296517.
No constants are given. Whether binding was seen depends on the method and setting. In cells and extracts the contact can be indirect. Some binding calls cover weakened binding; strength is not graded here.

The chains behind the UniProt entries cited, without tags or fusion partners.
UniProt P20340: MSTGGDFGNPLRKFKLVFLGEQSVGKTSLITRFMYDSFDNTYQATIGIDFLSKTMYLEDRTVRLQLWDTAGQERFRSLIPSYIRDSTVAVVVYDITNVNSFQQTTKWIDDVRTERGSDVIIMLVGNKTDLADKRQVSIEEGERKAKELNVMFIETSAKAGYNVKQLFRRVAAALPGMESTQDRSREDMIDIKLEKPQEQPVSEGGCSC
UniProt Q14789: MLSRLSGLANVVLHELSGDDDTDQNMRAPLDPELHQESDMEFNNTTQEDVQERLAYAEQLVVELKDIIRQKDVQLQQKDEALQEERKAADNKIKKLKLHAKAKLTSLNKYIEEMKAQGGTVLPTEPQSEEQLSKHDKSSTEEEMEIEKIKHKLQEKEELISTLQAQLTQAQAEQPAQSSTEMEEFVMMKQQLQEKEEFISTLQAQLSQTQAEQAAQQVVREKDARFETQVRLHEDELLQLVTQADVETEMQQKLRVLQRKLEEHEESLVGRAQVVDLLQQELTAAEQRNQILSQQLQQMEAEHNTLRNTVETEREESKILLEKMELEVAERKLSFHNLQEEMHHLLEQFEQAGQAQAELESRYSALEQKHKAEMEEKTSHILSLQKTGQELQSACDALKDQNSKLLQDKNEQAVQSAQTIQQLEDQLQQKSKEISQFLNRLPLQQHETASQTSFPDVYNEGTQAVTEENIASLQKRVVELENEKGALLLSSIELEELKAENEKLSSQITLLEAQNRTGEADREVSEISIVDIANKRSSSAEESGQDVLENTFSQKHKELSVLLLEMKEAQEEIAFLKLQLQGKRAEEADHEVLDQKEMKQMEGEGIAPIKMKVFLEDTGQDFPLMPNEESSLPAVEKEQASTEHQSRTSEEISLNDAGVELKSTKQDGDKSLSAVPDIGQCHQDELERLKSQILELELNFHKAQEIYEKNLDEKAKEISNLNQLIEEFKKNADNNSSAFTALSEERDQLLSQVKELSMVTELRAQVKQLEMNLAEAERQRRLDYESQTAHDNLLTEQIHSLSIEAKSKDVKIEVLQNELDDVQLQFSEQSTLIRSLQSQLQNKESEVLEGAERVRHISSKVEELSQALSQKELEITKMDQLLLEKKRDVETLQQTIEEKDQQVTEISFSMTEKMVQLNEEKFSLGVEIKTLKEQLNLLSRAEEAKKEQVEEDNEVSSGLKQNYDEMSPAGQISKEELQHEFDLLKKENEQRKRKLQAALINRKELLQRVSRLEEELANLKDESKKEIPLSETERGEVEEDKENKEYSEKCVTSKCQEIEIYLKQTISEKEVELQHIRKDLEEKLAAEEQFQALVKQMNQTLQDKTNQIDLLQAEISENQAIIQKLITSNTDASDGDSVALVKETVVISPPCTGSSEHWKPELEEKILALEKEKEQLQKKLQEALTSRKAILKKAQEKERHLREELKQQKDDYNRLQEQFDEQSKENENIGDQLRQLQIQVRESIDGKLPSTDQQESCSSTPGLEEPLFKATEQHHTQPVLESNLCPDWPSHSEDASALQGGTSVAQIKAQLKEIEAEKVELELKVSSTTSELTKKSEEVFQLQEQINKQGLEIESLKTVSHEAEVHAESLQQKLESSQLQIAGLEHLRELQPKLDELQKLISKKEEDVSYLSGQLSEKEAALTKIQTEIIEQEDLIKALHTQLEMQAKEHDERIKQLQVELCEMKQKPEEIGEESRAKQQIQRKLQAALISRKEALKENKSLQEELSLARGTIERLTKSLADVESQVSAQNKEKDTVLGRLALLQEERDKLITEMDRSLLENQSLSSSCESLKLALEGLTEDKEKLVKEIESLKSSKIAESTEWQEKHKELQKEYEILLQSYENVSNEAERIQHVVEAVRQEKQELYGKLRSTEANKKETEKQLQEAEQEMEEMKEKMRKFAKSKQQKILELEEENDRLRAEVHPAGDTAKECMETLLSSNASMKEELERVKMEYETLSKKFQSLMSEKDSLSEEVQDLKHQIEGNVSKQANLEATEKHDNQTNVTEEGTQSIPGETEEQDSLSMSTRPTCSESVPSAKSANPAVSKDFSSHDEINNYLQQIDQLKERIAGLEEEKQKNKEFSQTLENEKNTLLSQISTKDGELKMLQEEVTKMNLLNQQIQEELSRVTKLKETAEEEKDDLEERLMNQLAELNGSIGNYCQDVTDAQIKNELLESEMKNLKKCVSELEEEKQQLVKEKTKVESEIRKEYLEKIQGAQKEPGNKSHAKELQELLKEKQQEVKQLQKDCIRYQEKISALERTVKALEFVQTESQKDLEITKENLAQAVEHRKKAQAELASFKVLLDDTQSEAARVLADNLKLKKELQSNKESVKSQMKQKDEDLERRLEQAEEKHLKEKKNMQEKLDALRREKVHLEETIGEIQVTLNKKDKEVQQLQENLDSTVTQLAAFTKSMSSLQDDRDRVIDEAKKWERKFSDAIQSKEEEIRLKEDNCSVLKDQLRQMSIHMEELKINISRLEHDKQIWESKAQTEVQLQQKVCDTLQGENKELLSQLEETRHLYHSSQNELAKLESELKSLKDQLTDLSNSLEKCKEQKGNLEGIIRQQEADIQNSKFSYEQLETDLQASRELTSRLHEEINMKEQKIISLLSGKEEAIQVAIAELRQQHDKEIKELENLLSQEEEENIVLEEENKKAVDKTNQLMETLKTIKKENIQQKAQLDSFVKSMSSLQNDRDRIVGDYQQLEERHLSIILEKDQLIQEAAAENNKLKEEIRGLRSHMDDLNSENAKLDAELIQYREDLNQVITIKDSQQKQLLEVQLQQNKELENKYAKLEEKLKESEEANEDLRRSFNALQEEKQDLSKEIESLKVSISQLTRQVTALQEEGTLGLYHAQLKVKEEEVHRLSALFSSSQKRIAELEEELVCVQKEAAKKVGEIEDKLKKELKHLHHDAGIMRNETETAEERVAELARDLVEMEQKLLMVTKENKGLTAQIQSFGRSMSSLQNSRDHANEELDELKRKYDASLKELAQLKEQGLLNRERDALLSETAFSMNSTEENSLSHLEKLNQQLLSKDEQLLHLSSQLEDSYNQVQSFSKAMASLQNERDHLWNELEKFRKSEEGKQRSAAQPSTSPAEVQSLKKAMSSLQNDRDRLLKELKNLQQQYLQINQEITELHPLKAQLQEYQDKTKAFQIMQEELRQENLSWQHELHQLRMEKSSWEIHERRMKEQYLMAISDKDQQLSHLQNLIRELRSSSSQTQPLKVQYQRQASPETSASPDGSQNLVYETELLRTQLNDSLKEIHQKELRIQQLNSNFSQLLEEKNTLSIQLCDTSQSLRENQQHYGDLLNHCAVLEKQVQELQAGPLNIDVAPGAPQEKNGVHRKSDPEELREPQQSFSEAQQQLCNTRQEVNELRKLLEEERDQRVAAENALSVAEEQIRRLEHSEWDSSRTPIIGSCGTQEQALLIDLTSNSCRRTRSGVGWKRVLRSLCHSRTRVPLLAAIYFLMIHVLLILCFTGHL
UniProt P35579: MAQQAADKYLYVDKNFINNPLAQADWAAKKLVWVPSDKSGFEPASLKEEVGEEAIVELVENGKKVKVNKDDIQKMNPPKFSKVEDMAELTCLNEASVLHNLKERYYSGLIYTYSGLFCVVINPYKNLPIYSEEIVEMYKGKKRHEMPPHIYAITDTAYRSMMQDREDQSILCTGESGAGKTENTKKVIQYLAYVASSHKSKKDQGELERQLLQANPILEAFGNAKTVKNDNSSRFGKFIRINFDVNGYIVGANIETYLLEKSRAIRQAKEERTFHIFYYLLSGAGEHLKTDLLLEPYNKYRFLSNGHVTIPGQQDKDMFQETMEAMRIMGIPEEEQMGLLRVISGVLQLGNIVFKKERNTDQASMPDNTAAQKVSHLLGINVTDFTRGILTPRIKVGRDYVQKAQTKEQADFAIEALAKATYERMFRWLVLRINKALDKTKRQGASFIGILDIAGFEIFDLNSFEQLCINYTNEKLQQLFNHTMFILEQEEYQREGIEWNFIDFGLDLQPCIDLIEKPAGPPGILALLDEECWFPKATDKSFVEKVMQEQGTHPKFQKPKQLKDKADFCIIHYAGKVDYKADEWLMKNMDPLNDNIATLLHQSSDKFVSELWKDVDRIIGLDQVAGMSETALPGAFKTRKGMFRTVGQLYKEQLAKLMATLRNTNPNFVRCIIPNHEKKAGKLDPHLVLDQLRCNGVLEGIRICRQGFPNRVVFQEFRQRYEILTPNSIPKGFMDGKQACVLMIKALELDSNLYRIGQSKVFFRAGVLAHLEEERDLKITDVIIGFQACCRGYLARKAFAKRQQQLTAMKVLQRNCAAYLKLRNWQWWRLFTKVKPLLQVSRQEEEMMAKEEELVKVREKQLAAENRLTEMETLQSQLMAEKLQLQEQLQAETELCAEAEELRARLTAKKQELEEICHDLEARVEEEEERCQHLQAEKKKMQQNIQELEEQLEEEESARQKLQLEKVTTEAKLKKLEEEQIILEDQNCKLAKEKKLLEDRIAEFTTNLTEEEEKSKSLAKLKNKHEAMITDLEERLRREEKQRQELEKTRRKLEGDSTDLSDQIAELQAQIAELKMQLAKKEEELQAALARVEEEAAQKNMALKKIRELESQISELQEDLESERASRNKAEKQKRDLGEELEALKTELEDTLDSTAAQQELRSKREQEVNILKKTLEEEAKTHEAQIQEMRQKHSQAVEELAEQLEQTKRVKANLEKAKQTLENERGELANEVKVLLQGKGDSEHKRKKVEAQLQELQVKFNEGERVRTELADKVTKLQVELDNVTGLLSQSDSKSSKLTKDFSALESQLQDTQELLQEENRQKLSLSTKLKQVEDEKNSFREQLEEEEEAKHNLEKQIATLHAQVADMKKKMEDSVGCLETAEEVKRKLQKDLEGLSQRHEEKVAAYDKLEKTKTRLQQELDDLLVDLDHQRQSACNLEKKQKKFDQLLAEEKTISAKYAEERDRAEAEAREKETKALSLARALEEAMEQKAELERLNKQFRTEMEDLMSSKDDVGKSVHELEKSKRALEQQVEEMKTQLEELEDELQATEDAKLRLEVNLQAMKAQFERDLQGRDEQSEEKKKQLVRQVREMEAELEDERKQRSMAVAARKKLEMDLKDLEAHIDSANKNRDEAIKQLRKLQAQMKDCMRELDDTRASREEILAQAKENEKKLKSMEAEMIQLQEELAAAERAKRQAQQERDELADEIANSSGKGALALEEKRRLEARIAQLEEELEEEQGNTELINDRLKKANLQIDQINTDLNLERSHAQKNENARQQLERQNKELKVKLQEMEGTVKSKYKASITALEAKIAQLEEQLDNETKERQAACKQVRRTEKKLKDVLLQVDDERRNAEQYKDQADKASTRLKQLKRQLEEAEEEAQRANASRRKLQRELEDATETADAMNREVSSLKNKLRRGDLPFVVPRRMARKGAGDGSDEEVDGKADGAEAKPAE

What was measured:
[1] = target: Rab6a GTPase (human (endogenous in LNCaP)) (UniProt P20340); assay: co-IP
[2] = target: T1, biotin-MLKKQS peptide that matches CT of MGAT1 (human); assay: pull-down
T1 sequence (peptide, biotin on the N-terminus): MLKKQS

[3] = target: giantin (human (endogenous in HeLa, LNCaP, PC-3, liver tissue)) (UniProt Q14789); assay: co-IP

| Substance | binding [1] | binding [2] | binding [3] |
| --- | --- | --- | --- |
| non-muscle Myosin IIA (NMIIA) (from UniProt P35579 1-1960) | binds | – | – |
| giantin (from UniProt Q14789 1-3259) | binds | binds | – |
| Rab6a GTPase (from UniProt P20340 1-208) | – | – | binds |
